Experimental data: patent US11389537B2, “Drug delivery system for sustained delivery of bioactive agents” (UPM-Kymmene Corporation, priority 2011, dated 2022)
For at least one compound, name, drawing or mass did not settle the structure.

Assay: Contact angle between matrix surface and water drop
Conditions: water drop on matrix surface or pure drug

With `CCC(C)n1ncn(-c2ccc(N3CCN(c4ccc(OCC5COC(Cn6cncn6)(c6ccc(Cl)cc6Cl)O5)cc4)CC3)cc2)c1=O` (stereo not shown) [Itraconazole, itraconazole] the Contact angle was 107.
